Reference: publication PMC3176784
These are yes or no findings as the source states them, for the method shown. In cells and extracts the contact can be indirect. Some binding calls cover weakened binding; strength is not graded here. For some of these results: Where a sequence is shown, tags or fusion partners need not be part of it.

Amino acid sequences for entries named in this document (tags omitted).
UniProt P29351: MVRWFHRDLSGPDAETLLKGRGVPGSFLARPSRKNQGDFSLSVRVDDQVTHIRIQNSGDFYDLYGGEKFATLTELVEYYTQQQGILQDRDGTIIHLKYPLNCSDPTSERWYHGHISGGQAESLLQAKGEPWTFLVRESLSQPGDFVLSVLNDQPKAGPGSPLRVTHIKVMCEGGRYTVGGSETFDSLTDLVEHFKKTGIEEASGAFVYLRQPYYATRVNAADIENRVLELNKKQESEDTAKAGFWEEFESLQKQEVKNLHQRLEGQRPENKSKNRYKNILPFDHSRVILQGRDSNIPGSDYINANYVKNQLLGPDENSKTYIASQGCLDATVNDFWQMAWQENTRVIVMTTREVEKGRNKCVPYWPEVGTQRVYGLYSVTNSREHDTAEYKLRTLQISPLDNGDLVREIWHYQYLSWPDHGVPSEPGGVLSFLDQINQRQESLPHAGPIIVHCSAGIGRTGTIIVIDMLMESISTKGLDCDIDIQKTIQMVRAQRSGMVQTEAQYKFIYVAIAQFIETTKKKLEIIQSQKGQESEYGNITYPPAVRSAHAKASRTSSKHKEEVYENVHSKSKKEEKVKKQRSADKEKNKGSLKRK

Tests used:
Experiment in all cases: pull-down; GST fusion proteins with portions of PLC-β3-CT mixed with precleared lysates of Ba/F3 cells (with or without IL-3), 2 h at 4°C; lysis buffer 20 mM Tris-HCl pH 8.0, 150 mM NaCl, 1 mM EDTA, 1% Nonidet P-40; six washes; immunoblot with anti-Stat5 or anti-SHP-1; only the target purified
[1] = target: T1, PLC-β3 region d (positions 1182–1209) (mouse) (UniProt P51432)
T1 sequence: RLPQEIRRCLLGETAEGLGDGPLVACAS

[2] = target: T2, PLC-β3 region c (positions 1032–1069) (mouse) (UniProt P51432)
T2 sequence: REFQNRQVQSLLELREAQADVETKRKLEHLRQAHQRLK

[3] = target: T3, GST fusion protein of PLC-β3 residues 983–1234 (mouse) (UniProt P51432)
T3 sequence: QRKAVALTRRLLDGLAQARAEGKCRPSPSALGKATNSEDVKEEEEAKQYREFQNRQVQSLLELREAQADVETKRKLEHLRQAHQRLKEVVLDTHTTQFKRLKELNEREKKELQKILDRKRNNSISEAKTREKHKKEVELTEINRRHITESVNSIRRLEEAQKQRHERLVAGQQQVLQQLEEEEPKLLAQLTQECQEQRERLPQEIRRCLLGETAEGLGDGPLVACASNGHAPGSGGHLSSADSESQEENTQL

[4] = target: T4, PLC-β3 peptide (1114–1132) (mouse) (UniProt P51432)
T4 sequence: KHKKEVELTEINRRHITES

binding [1]: binds | binding [2]: binds | binding [3]: binds | binding [4]: no binding
Substance: SH2 domain-containing protein phosphatase SHP-1 (from UniProt P29351 1-595) (enzyme)
